{"source": "paper PMC12136191", "about": "“Structural basis for mTORC1 regulation by the CASTOR1-GATOR2 complex” (Research Square, 2025)", "binders": {"B1": {"name": "MIOS, subunit within purified GATOR2 (natural protein)", "chain": "MSGTKPDILWAPHHVDRFVVCDSELSLYHVESTVNSELKAGSLRLSEDSAATLLSINSDTPYMKCVAWYLNYDPECLLAVGQANGRVVLTSLGQDHNSKFKDLIGKEFVPKHARQCNTLAWNPLDSNWLAAGLDKHRADFSVLIWDICSKYTPDIVPMEKVKLSAGETETTLLVTKPLYELGQNDACLSLCWLPRDQKLLLAGMHRNLAIFDLRNTSQKMFVNTKAVQGVTVDPYFHDRVASFYEGQVAIWDLRKFEKPVLTLTEQPKPLTKVAWCPTRTGLLATLTRDSNIIRLYDMQHTPTPIGDETEPTIIERSVQPCDNYIASFAWHPTSQNRMIVVTPNRTMSDFTVFERISLAWSPITSLMWACGRHLYECTEEENDNSLEKDIATKMRLRALSRYGLDTEQVWRNHILAGNEDPQLKSLWYTLHFMKQYTEDMDQKSPGNKGSLVYAGIKSIVKSSLGMVESSRHNWSGLDKQSDIQNLNEERILALQLCGWIKKGTDVDVGPFLNSLVQEGEWERAAAVALFNLDIRRAIQILNEGASSEKGDLNLNVVAMALSGYTDEKNSLWREMCSTLRLQLNNPYLCVMFAFLTSETGSYDGVLYENKVAVRDRVAFACKFLSDTQLNRYIEKLTNEMKEAGNLEGILLTGLTKDGVDLMESYVDRTGDVQTASYCMLQGSPLDVLKDERVQYWIENYRNLLDAWRFWHKRAEFDIHRSKLDPSSKPLAQVFVSCNFCGKSISYSCSAVPHQGRGFSQYGVSGSPTKSKVTSCPGCRKPLPRCALCLINMGTPVSSCPGGTKSDEKVDLSKDKKLAQFNNWFTWCHNCRHGGHAGHMLSWFRDHAECPVSACTCKCMQLDTTGNLVPAETVQP", "notes": "MIOS, subunit of GATOR2; codon optimized synthetic DNA; The MIOS chain of m1, written alone for the pairs that touch in the structure; also called front face MIOS; source: HEK293-GNTI cells, co-expressed with the other GATOR2 subunits, purified as part of GATOR2"}}, "target": "T1, WDR59, subunit within purified GATOR2 (UniProt Q6PJI9)", "T1 sequence": "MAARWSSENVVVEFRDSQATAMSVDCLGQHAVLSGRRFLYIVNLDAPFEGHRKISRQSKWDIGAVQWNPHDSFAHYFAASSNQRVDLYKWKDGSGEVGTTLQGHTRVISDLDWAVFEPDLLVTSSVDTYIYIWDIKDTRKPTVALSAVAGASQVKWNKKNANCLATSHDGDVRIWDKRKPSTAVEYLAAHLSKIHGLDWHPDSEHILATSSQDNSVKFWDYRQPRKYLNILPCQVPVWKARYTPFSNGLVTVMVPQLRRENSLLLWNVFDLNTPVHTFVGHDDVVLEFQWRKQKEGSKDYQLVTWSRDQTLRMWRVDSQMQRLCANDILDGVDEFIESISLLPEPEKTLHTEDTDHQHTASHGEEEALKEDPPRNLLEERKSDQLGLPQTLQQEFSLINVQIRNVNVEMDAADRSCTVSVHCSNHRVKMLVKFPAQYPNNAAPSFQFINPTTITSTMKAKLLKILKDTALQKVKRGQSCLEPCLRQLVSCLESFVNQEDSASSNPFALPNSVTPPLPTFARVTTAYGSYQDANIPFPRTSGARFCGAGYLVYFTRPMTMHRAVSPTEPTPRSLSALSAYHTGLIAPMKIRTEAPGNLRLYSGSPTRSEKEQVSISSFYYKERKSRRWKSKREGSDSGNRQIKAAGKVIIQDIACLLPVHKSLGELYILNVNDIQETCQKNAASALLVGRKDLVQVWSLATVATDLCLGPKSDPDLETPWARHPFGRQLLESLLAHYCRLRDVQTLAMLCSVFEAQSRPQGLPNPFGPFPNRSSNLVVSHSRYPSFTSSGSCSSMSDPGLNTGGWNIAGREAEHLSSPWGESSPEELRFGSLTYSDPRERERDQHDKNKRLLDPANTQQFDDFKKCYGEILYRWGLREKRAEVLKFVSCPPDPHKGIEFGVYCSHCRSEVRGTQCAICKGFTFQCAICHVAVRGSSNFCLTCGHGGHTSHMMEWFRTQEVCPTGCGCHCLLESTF", "test": "cryo-EM structure; purified GATOR2 at 0.45 mg/mL with 3-fold molar excess of CASTOR1^apo, 45 minutes on ice, frozen on grids; no Arg; Titan Krios; both purified", "note": "These are yes or no findings as the source states them, for the method shown. Some binding calls cover weakened binding; strength is not graded here."}
{"binder": "B1", "values": [{"measurement": "binding", "value": "binds"}]}
